# Reference: the supplement of paper PMC8728848
# This is one part of the list.
# B1: SUN4 (Saccharomyces cerevisiae), P53616 (protein)
# chain: MGSSHHHHHHSSGLVPRGSHNGSIYGDLADFSGPYEKFEDGTIPCGQFPSGQGVIPISWLDEGGWSGVENTDTSTGGSCKEGSYCSYACQPGMSKTQWPSDQPSDGRSIGGLLCKDGYLYRSNTDTDYLCEWGVDAAYVVSELSNDVAICRTDYPGTENMVIPTYVQAGDSLPLTVVDQDTYYTWQGLKTSAQYYVNNAGISVEDACVWGSSSSGVGNWAPLNFGAGSSDGVAYLSLIPNPNNGNALNFNVKIVAADDSSTVNGECIYENGSFSGGSDGCTVSVTAGKAKFVLYN
# Legend:
# Test in all cases: glycan array binding signal (z-score within array); higher = stronger binding
# Settings in all cases: glycan notation: IUPAC condensed, linker removed
# [1] = target: Fuc(a1-2)Gal
# In short: (§1)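 The binding signal is a Z-score computed within each array. Data were drawn from 3228 arrays in the Consortium for Functional Glycomics database, restricted to those with a known protein sequence. Scores were averaged over arrays of the same protein sequence at different concentrations or buffers, and over linkers, and negative values can be taken as non-binding.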
# [2] = target: Fuc(a1-2)Gal(b1-3)GalNAc
# In short: as §1
# [3] = target: Fuc(a1-2)Gal(b1-3)GalNAc(a1-3)[Fuc(a1-2)]Gal(b1-4)Glc
# In short: as §1
# [4] = target: Fuc(a1-2)Gal(b1-3)GalNAc(a1-3)[Fuc(a1-2)]Gal(b1-4)GlcNAc
# In short: as §1
# [5] = target: Fuc(a1-2)Gal(b1-3)GalNAc(b1-3)Gal
# In short: as §1
# [6] = target: Fuc(a1-2)Gal(b1-3)GalNAc(b1-3)Gal(a1-4)Gal(b1-4)Glc
# In short: as §1
# [7] = target: Fuc(a1-2)Gal(b1-3)GalNAc(b1-4)[Neu5Ac(a2-3)]Gal(b1-4)Glc
# In short: as §1
# [8] = target: Fuc(a1-2)Gal(b1-3)GlcNAc
# In short: as §1
# [9] = target: Fuc(a1-2)Gal(b1-3)GlcNAc(b1-2)Man(a1-3)[Fuc(a1-2)Gal(b1-3)GlcNAc(b1-2)Man(a1-6)]Man(b1-4)GlcNAc(b1-4)GlcNAc
# In short: as §1
# [10] = target: Fuc(a1-2)Gal(b1-3)GlcNAc(b1-2)Man(a1-3)[Fuc(a1-2)Gal(b1-3)GlcNAc(b1-2)Man(a1-6)]Man(b1-4)GlcNAc(b1-4)[Fuc(a1-6)]GlcNAc
# In short: as §1
# [11] = target: Fuc(a1-2)Gal(b1-3)GlcNAc(b1-3)Gal(b1-4)Glc
# In short: as §1
# [12] = target: Fuc(a1-2)Gal(b1-3)GlcNAc(b1-3)GalNAc
# In short: as §1
# [13] = target: Fuc(a1-2)Gal(b1-3)GlcNAc(b1-3)[Fuc(a1-2)Gal(b1-3)GlcNAc(b1-6)]GalNAc
# In short: as §1
# [14] = target: Fuc(a1-2)Gal(b1-3)GlcNAc(b1-3)[Gal(b1-4)GlcNAc(b1-6)]Gal(b1-4)Glc
# In short: as §1
# [15] = target: Fuc(a1-2)Gal(b1-3)GlcNAc(b1-3)[Neu5Ac(a2-6)Gal(b1-4)GlcNAc(b1-6)]Gal(b1-4)Glc
# In short: as §1
# [16] = target: Fuc(a1-2)Gal(b1-3)GlcNAc6S
# In short: as §1
# [17] = target: Fuc(a1-2)Gal(b1-3)[Fuc(a1-4)]GlcNAc
# In short: as §1
# [18] = target: Fuc(a1-2)Gal(b1-3)[Fuc(a1-4)]GlcNAc(b1-2)Man(a1-3)[Fuc(a1-2)Gal(b1-3)[Fuc(a1-4)]GlcNAc(b1-2)Man(a1-3)]Man(b1-4)GlcNAc(b1-4)GlcNAc
# In short: as §1
# [19] = target: Fuc(a1-2)Gal(b1-3)[Fuc(a1-4)]GlcNAc(b1-2)Man(a1-3)[Fuc(a1-2)Gal(b1-3)[Fuc(a1-4)]GlcNAc(b1-2)Man(a1-6)]Man(b1-4)GlcNAc(b1-4)[Fuc(a1-6)]GlcNAc(b1-4)[Fuc(a1-6)]GlcNAc
# In short: as §1
# [20] = target: Fuc(a1-2)Gal(b1-3)[Fuc(a1-4)]GlcNAc(b1-3)[Fuc(a1-3)[Gal(b1-4)]GlcNAc(b1-6)]Gal(b1-4)Glc
# In short: as §1
# [21] = target: Fuc(a1-2)Gal(b1-3)[Fuc(a1-4)]GlcNAc(b1-3)[Gal(b1-4)GlcNAc(b1-6)]Gal(b1-4)Glc
# In short: as §1
# [22] = target: Fuc(a1-2)Gal(b1-4)Fuc(a1-3)]GlcNAc(b1-2)Man(a1-3)[Fuc(a1-2)Gal(b1-4)[Fuc(a1-3)]GlcNAc(b1-2)Man(a1-6)]Man(b1-4)GlcNAc(b1-4)GlcNAc
# In short: as §1
# [23] = target: Fuc(a1-2)Gal(b1-4)Glc
# In short: as §1
# [24] = target: Fuc(a1-2)Gal(b1-4)Glc6S
# In short: as §1
# [25] = target: Fuc(a1-2)Gal(b1-4)GlcNAc
# In short: as §1
# [26] = target: Fuc(a1-2)Gal(b1-4)GlcNAc(b1-2)Man
# In short: as §1
# [27] = target: Fuc(a1-2)Gal(b1-4)GlcNAc(b1-2)Man(a1-3)[Fuc(a1-2)Gal(b1-4)GlcNAc(b1-2)Man(a1-6)]Man(b1-4)GlcNAc(b1-4)GlcNAc
# In short: as §1
# [28] = target: Fuc(a1-2)Gal(b1-4)GlcNAc(b1-2)Man(a1-3)[Fuc(a1-2)Gal(b1-4)GlcNAc(b1-2)Man(a1-6)]Man(b1-4)GlcNAc(b1-4)[Fuc(a1-6)]GlcNAc
# In short: as §1
# [29] = target: Fuc(a1-2)Gal(b1-4)GlcNAc(b1-2)[Fuc(a1-2)Gal(b1-4)GlcNAc(b1-4)]Man(a1-3)[Fuc(a1-2)Gal(b1-4)GlcNAc(b1-2)Man(a1-6)]Man(b1-4)GlcNAc(b1-4)GlcNAc
# In short: as §1
# [30] = target: Fuc(a1-2)Gal(b1-4)GlcNAc(b1-3)Gal(b1-4)GlcNAc
# In short: as §1
# [31] = target: Fuc(a1-2)Gal(b1-4)GlcNAc(b1-3)Gal(b1-4)GlcNAc(b1-2)Man(a1-3)[Fuc(a1-2)Gal(b1-4)GlcNAc(b1-3)Gal(b1-4)GlcNAc(b1-2)Man(a1-6)]Man(b1-4)GlcNAc(b1-4)GlcNAc
# In short: as §1
# [32] = target: Fuc(a1-2)Gal(b1-4)GlcNAc(b1-3)Gal(b1-4)GlcNAc(b1-3)Gal(b1-4)GlcNAc
# In short: as §1
# [33] = target: Fuc(a1-2)Gal(b1-4)GlcNAc(b1-3)GalNAc
# In short: as §1
# [34] = target: Fuc(a1-2)Gal(b1-4)GlcNAc(b1-3)[Fuc(a1-2)Gal(b1-4)GlcNAc(b1-6)]GalNAc
# In short: as §1
# [35] = target: Fuc(a1-2)Gal(b1-4)GlcNAc(b1-3)[Fuc(a1-3)[Gal(b1-4)]GlcNAc(b1-6)]Gal(b1-4)Glc
# In short: as §1
# [36] = target: Fuc(a1-2)Gal(b1-4)GlcNAc(b1-6)GalNAc
# In short: as §1
# [37] = target: Fuc(a1-2)Gal(b1-4)GlcNAc6S
# In short: as §1
# [38] = target: Fuc(a1-2)Gal(b1-4)[Fuc(a1-3)]GlcNAc
# In short: as §1
# [39] = target: Fuc(a1-2)Gal(b1-4)[Fuc(a1-3)]GlcNAc(b1-2)Man(a1-3)[Fuc(a1-2)Gal(b1-4)[Fuc(a1-3)]GlcNAc(b1-2)Man(a1-6)]Man(b1-4)GlcNAc(b1-4)[Fuc(a1-6)]GlcNAc
# In short: as §1
# [40] = target: Fuc(a1-2)Gal(b1-4)[Fuc(a1-3)]GlcNAc(b1-2)[Fuc(a1-2)Gal(b1-4)[Fuc(a1-3)]GlcNAc(b1-4)]Man(a1-3)[Fuc(a1-2)Gal(b1-4)[Fuc(a1-3)]GlcNAc(b1-2)Man(a1-6)]Man(b1-4)GlcNAc(b1-4)GlcNAc
# In short: as §1
# [41] = target: Fuc(a1-2)Gal(b1-4)[Fuc(a1-3)]GlcNAc(b1-3)Gal(b1-4)[Fuc(a1-3)]GlcNAc
# In short: as §1
# [42] = target: Fuc(a1-2)Gal(b1-4)[Fuc(a1-3)]GlcNAc(b1-3)Gal(b1-4)[Fuc(a1-3)]GlcNAc(b1-3)Gal(b1-4)[Fuc(a1-3)]GlcNAc
# In short: as §1
# [43] = target: Fuc(a1-2)Gal(b1-4)[Fuc(a1-3)]GlcNAc(b1-3)GalNAc
# In short: as §1
# [44] = target: Fuc(a1-2)Gal(b1-4)[Fuc(a1-3)]GlcNAc(b1-3)[Neu5Ac(a2-6)Gal(b1-4)GlcNAc(b1-6)]Gal(b1-4)Glc
# In short: as §1
# [45] = target: Fuc(a1-2)Gal3S(b1-4)GlcNAc
# In short: as §1
binder,measurement,setting,value
B1,glycan array binding signal (z-score),[1],-0.133
same,glycan array binding signal (z-score),[2],0.328
same,glycan array binding signal (z-score),[3],-0.696
same,glycan array binding signal (z-score),[4],-0.687
same,glycan array binding signal (z-score),[5],-0.399
same,glycan array binding signal (z-score),[6],0.954
same,glycan array binding signal (z-score),[7],-0.421
same,glycan array binding signal (z-score),[8],-0.873
same,glycan array binding signal (z-score),[9],0.897
same,glycan array binding signal (z-score),[10],-0.414
same,glycan array binding signal (z-score),[11],-0.045
same,glycan array binding signal (z-score),[12],-0.524
same,glycan array binding signal (z-score),[13],0.083
same,glycan array binding signal (z-score),[14],-1.29
same,glycan array binding signal (z-score),[15],0.004
same,glycan array binding signal (z-score),[16],0.583
same,glycan array binding signal (z-score),[17],-0.752
same,glycan array binding signal (z-score),[18],-0.207
same,glycan array binding signal (z-score),[19],-0.09
same,glycan array binding signal (z-score),[20],-0.204
same,glycan array binding signal (z-score),[21],0.297
same,glycan array binding signal (z-score),[22],0.486
same,glycan array binding signal (z-score),[23],0.275
same,glycan array binding signal (z-score),[24],-0.667
same,glycan array binding signal (z-score),[25],-0.35
same,glycan array binding signal (z-score),[26],0.324
same,glycan array binding signal (z-score),[27],-1.06
same,glycan array binding signal (z-score),[28],1.62
same,glycan array binding signal (z-score),[29],1.03
same,glycan array binding signal (z-score),[30],-1.49
same,glycan array binding signal (z-score),[31],-0.222
same,glycan array binding signal (z-score),[32],-0.388
same,glycan array binding signal (z-score),[33],0.366
same,glycan array binding signal (z-score),[34],0.169
same,glycan array binding signal (z-score),[35],0.728
same,glycan array binding signal (z-score),[36],0.69
same,glycan array binding signal (z-score),[37],-0.669
same,glycan array binding signal (z-score),[38],0.241
same,glycan array binding signal (z-score),[39],1.35
same,glycan array binding signal (z-score),[40],0.419
same,glycan array binding signal (z-score),[41],-0.149
same,glycan array binding signal (z-score),[42],0.026
same,glycan array binding signal (z-score),[43],0.099
same,glycan array binding signal (z-score),[44],-0.432
same,glycan array binding signal (z-score),[45],-0.353

# An excerpt of these results, bar-delimited.
binder | measurement | setting | value
B1 | glycan array binding signal (z-score) | [20] | -0.204
same | glycan array binding signal (z-score) | [21] | 0.297
same | glycan array binding signal (z-score) | [22] | 0.486
